US11970498B2, “CDK2 inhibitors” (BLUEPRINT MEDICINES CORPORATION, priority 2021, dated 2024)
Structures were worked out from names or drawings and are uncertain.

By UniProt entry, the sequences of proteins in these tests, tags left out.
UniProt P06493, whole entry: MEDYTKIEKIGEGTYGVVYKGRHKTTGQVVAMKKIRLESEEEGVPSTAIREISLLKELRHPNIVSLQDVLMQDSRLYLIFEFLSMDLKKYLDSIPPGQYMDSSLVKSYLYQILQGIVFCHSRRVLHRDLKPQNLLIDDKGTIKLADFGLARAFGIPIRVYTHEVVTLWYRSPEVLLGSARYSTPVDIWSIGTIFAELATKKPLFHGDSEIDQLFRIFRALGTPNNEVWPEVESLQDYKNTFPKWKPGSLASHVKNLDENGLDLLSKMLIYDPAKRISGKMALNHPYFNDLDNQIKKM
UniProt P14635, whole entry partner: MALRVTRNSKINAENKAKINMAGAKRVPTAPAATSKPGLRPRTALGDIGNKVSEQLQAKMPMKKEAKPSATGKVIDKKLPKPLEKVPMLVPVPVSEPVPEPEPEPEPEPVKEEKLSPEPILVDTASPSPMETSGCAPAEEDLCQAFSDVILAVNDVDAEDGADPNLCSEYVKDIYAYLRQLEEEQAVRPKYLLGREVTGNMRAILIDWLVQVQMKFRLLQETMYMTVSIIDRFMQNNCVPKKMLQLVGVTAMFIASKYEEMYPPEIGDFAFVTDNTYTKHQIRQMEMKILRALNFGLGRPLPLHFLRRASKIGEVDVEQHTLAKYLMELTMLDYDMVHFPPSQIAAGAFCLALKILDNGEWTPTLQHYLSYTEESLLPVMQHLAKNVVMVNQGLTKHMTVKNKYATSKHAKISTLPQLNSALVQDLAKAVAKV

Tests used:
[1] = target: CDK2/Cyclin E (Homo sapiens, UniProt P24941); test: CDK2/Cyclin E biochemical phosphorylation assay (Caliper mobility shift); settings: read-out: CDK2/cyclin E1 IC50; apparent IC50; 1.0 mM ATP or ATP Km; 1.25 nM enzyme; 25° C.
Protocol: (§1) Inhibitory effects of the compounds of the disclosure were measured in biochemical assays that measure the enzymatic phosphorylation activity of CDK enzyme in complex of Cyclin proteins phosphorylates 7.5 micromolar fluorescently labelled peptide substrate, 5-FAM-QSPKKG-CONH2, (FL-Peptide 18, Perkin Elmer, 760362) in the presence of adenosine-5′-triphosphate (ATP) and varying concentrations of the test compound in 100 mM 2-[4-(2-hydroxyethyl)piperazin-1-yl] ethanesulfonic acid (HEPES), pH 7.5, 10 mM MgCl2, 0.015% Brij-35, 1 mM dithiothreitol (DTT), 1.0% dimethylsulfoxide (DMSO). Assays were performed at 1.0 mM ATP or at ATP Km of the CDK enzymes in complex with Cyclin proteins. Reactions proceeded until between 10% to 20% total peptides were phosphorylated at room temperature (25° C.) and were terminated with 35 mM 2,2′,2″,2′″-(ethane-1,2-diyldinitrilo)tetraacetic acid (EDTA). Product was detected using the Caliper mobility shift detection method where the phosphorylated peptide (product) and substrate were electrophoretically separated and measured. Percent activity was plotted against log concentration of compound and points to generate an apparent IC50. The following CDK enzymes in complex with different cyclin proteins were used in these assays: • CDK1/Cyclin B1, GST-tag (BPS, 40454), 1.5 nM used in the assay • CDK2/Cyclin E (Eurofins, 14-475), 1.25 nM used in the assays […]

[2] = target: CDK1/Cyclin B1, GST-tag (Homo sapiens, UniProt P06493); test: CDK1/Cyclin B1 biochemical phosphorylation assay (Caliper mobility shift); settings: read-out: CDK1/cyclin B1 IC50; apparent IC50; 1.0 mM ATP or ATP Km; 1.5 nM enzyme; 25° C.
Protocol: as §1

FC(F)Oc1cc(Nc2cnc3cnn(C[C@@H]4C[C@@H]4F)c3n2)n[nH]1 (relative stereo)
IC50 [1]: < 10 nM | IC50 [2]: 100 to 500 nM
